The values that follow come from doi:10.1101/2024.06.28.601102.

The chains behind the UniProt entries cited, without tags or fusion partners.
UniProt O00425: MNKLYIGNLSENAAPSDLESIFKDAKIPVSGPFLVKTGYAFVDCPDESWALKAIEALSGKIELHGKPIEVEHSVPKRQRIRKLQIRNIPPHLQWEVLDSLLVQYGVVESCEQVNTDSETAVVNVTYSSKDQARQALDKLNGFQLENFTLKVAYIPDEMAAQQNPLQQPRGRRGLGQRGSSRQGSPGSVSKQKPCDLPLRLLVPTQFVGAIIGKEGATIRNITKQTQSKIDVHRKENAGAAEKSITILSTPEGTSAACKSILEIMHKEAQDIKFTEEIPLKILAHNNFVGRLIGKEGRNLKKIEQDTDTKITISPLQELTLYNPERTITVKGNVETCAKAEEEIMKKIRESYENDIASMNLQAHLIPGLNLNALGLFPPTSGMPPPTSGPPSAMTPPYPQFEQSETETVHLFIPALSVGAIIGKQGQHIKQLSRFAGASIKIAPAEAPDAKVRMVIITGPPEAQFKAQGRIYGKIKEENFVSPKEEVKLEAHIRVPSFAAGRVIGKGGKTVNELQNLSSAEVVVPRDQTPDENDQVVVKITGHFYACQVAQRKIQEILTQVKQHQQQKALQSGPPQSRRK

Test [1] has as its target T1, F-Box Protein 32 (FBXO32) (human (endogenous in HGC-27)) (UniProt Q969P5).
T1 sequence: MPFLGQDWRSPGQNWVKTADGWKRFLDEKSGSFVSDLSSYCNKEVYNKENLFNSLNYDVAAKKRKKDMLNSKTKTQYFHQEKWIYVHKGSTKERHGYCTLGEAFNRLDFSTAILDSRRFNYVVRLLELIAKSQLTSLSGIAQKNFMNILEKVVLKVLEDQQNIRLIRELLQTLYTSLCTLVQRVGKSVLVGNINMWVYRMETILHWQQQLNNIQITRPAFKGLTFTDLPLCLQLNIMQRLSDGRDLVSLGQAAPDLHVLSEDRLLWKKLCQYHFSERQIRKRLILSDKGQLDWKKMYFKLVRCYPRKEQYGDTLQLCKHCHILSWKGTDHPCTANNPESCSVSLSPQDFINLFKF
Put plainly: co-IP.

The target in test [2] is Insulin like growth factor II mRNA binding protein 3 (IGF2BP3) (human (endogenous in HGC-27)) (UniProt O00425). Put plainly: co-IP.

No constants are given. Whether binding was seen depends on the method and setting. In cells and extracts the contact can be indirect. Some binding calls cover weakened binding; strength is not graded here.

With “Insulin like growth factor II mRNA binding protein 3 (IGF2BP3) (from UniProt O00425 1-579)”, in test [1], the binding result is listed as “binds”.

B1: F-Box Protein 32 (FBXO32) (protein, UniProt Q969P5 1-355)
chain: MPFLGQDWRSPGQNWVKTADGWKRFLDEKSGSFVSDLSSYCNKEVYNKENLFNSLNYDVAAKKRKKDMLNSKTKTQYFHQEKWIYVHKGSTKERHGYCTLGEAFNRLDFSTAILDSRRFNYVVRLLELIAKSQLTSLSGIAQKNFMNILEKVVLKVLEDQQNIRLIRELLQTLYTSLCTLVQRVGKSVLVGNINMWVYRMETILHWQQQLNNIQITRPAFKGLTFTDLPLCLQLNIMQRLSDGRDLVSLGQAAPDLHVLSEDRLLWKKLCQYHFSERQIRKRLILSDKGQLDWKKMYFKLVRCYPRKEQYGDTLQLCKHCHILSWKGTDHPCTANNPESCSVSLSPQDFINLFKF
B1: in test [2], the binding entry was “binds”.
